Measured values reported in the supplement of paper PMC12823440, “Inhibitors supercharge kinase turnover through native proteolytic circuits” (Nature, 2025).
Structures can show the parent of a compound that is named as a salt. The list shows a part of the results. Hit calls seldom repeat between salt and free forms of one compound.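 Kinases were expressed as nanoluciferase fusions in K562 cells and luminescence was read every 4 h between 2 and 18 h as percent of control, DMSO set to 100% and a positive control to 0%. A time point counts as decreased when the signal drops significantly (2 sigma). The hit call is the authors' own, does not follow from the count of time points alone, and its rule is not shown.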

Protein sequences, listed by entry. Tags and fused reporters are not part of them. Lines headed by an entry give the natural chain unless they say otherwise; changes in a name come on top.
UniProt P50613: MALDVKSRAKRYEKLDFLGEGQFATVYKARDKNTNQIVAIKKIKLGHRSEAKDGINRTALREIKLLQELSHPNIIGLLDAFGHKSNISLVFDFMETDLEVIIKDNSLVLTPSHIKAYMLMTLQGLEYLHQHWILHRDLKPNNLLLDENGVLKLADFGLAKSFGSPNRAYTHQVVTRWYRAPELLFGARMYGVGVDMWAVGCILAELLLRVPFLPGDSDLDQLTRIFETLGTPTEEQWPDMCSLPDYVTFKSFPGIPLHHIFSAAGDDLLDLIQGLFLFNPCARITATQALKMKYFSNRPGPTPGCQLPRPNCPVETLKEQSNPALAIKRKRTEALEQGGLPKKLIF
UniProt P50750, whole entry: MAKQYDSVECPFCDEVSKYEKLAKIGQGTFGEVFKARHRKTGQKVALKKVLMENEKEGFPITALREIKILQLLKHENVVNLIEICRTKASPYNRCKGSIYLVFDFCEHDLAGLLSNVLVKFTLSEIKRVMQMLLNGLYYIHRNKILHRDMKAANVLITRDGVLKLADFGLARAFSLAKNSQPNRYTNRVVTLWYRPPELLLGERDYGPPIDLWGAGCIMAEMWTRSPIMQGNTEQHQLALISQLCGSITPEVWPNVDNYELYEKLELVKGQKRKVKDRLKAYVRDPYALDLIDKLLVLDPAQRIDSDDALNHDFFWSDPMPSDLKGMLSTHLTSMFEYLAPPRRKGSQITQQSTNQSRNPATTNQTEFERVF
UniProt O96017, whole entry: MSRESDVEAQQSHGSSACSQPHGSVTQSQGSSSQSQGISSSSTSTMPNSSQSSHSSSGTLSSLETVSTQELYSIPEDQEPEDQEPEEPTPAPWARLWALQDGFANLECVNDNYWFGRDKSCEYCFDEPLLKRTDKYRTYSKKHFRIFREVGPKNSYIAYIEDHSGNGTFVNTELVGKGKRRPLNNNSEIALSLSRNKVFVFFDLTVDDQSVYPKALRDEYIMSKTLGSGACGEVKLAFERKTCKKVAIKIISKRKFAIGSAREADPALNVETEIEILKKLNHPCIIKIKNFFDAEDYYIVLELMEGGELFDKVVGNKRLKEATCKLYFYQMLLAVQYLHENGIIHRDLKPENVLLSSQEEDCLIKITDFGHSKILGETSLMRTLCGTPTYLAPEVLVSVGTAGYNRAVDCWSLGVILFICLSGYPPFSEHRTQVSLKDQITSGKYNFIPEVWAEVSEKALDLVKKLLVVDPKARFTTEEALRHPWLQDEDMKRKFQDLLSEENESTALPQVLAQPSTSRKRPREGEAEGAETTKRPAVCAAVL
UniProt P07333, whole entry: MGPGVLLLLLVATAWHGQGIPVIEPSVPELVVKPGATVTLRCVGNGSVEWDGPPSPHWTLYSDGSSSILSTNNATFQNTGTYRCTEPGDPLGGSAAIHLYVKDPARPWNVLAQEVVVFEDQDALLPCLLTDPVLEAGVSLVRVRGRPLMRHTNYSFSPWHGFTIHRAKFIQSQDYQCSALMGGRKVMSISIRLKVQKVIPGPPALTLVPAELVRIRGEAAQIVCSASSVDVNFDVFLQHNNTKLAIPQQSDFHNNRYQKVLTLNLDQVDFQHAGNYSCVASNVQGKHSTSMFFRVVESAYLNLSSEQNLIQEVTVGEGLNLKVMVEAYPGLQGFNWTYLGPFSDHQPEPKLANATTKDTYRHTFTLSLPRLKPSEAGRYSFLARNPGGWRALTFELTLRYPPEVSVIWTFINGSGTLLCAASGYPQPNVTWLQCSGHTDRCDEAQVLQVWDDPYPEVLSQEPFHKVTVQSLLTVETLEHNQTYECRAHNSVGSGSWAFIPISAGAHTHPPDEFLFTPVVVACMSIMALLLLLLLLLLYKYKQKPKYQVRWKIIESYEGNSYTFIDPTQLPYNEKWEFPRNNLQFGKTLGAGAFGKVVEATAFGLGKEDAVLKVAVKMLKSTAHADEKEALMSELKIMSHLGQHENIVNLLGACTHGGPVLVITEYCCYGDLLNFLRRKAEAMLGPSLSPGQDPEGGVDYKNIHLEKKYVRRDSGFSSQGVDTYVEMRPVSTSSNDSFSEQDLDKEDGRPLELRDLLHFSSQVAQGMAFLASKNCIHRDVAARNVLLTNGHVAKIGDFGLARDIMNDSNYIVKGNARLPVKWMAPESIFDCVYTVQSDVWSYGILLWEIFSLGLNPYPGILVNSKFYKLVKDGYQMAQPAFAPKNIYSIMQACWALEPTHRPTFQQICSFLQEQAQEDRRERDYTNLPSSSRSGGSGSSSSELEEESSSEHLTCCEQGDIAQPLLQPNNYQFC
UniProt P41240: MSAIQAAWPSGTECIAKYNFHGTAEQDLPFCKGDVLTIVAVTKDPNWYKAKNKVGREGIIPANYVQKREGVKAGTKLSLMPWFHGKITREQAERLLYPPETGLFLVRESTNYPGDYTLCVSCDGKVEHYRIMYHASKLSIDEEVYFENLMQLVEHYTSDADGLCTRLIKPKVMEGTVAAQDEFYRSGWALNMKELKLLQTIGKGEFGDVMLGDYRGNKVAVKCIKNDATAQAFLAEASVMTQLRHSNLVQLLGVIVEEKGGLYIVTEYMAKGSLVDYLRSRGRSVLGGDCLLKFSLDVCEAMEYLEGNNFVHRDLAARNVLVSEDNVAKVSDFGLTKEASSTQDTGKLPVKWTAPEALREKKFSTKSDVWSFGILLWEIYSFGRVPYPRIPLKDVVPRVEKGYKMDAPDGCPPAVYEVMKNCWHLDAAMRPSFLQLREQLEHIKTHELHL
UniProt P48729: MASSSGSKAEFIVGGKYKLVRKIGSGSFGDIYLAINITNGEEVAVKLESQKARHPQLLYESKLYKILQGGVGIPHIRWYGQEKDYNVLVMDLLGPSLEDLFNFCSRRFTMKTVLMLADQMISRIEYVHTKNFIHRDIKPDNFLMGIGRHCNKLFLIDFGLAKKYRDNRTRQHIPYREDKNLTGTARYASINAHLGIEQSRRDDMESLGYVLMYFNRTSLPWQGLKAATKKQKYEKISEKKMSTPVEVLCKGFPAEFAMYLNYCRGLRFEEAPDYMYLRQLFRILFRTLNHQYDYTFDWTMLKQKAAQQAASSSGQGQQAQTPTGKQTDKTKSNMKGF
UniProt P48730: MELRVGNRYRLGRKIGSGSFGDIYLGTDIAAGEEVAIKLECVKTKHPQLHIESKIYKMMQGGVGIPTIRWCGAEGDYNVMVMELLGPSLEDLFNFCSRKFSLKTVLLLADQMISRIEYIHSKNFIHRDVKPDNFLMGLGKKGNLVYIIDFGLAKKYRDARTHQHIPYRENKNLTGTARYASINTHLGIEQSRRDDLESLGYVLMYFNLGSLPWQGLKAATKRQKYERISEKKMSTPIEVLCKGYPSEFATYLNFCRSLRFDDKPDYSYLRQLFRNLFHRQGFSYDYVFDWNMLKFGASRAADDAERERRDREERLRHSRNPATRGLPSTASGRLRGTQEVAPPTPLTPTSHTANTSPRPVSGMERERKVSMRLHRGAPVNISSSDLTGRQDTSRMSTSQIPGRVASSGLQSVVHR
UniProt Q08345: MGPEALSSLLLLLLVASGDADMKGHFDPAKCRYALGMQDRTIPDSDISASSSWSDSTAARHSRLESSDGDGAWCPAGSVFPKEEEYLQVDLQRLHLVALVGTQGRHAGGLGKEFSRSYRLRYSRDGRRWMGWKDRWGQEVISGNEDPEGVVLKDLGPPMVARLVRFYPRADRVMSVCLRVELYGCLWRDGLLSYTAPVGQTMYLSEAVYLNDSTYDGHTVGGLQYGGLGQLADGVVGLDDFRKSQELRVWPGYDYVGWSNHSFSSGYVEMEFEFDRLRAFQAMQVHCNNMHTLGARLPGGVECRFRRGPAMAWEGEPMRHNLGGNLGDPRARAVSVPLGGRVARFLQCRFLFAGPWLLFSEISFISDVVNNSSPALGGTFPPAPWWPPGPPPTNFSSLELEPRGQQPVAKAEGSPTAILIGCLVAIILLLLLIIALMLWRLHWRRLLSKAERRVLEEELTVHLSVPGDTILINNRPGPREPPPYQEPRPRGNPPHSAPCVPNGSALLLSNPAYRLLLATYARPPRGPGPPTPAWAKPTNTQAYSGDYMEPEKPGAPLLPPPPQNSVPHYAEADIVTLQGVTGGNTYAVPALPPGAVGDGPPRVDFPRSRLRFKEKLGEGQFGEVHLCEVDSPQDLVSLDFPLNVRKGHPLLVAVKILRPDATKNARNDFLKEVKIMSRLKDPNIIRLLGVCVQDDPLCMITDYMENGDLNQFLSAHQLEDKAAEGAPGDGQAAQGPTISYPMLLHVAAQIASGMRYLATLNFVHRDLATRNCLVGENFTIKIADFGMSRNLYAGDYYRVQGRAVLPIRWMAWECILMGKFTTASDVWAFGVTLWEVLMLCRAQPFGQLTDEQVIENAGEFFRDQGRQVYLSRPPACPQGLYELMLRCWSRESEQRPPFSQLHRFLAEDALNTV
UniProt Q92630: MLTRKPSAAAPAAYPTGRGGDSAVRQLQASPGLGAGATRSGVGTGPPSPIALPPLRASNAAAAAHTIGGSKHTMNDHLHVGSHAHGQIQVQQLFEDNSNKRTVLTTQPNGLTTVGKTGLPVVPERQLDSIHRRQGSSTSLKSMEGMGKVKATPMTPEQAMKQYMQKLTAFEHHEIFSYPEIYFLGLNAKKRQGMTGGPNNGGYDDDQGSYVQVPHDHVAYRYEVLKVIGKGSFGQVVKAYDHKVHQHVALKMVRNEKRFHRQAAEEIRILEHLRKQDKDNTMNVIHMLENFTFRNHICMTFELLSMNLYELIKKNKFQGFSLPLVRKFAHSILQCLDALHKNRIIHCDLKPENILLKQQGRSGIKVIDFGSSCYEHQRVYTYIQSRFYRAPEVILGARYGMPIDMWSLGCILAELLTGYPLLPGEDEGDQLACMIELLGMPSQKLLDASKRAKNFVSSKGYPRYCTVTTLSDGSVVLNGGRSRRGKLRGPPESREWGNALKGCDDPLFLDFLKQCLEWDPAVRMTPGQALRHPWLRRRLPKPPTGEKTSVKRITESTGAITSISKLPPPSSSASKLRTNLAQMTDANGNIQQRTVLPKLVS
UniProt Q15303, whole entry R711C: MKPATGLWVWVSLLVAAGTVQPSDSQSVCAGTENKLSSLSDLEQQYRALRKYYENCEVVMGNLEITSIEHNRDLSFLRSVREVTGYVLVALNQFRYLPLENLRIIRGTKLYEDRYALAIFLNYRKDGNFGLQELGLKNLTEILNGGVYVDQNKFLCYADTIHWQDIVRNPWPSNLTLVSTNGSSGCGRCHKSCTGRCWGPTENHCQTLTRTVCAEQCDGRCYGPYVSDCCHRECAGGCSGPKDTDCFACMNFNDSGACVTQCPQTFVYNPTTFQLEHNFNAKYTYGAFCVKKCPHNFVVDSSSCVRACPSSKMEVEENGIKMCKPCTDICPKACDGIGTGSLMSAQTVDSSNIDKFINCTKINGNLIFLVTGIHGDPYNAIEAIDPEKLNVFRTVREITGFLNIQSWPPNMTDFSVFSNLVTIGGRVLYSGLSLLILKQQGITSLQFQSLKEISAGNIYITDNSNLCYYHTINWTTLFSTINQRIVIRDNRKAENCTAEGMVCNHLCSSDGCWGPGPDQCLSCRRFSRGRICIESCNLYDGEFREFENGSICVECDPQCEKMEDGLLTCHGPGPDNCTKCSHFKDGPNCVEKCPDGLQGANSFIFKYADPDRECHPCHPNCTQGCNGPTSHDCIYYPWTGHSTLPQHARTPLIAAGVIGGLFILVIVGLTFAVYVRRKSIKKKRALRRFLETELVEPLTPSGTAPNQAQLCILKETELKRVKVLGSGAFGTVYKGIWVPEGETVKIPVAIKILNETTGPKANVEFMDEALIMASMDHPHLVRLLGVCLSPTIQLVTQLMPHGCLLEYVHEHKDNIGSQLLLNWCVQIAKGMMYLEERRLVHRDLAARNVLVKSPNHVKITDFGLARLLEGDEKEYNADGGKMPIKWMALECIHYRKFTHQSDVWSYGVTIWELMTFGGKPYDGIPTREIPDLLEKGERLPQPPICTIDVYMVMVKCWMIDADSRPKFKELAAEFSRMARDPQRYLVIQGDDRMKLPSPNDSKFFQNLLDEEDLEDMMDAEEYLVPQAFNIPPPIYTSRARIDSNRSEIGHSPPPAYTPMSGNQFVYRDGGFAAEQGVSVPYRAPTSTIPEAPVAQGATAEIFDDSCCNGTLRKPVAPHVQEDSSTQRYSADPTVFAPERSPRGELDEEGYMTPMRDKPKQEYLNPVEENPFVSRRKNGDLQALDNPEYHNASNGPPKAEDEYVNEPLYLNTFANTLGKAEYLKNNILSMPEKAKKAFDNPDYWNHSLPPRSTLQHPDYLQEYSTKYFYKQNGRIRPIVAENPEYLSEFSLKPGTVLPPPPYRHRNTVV

What was measured:
Experiment in all cases: kinase-Nluc reporter destabilization hit call (1 = scored as downregulated) (binary); higher = compound decreases kinase abundance
Conditions in all cases: K562; 2-18 h
CDK7 = CDK7 (UniProt P50613)
CDK9 = CDK9 (UniProt P50750)
CHEK2 = CHEK2 (UniProt O96017)
CSF1R = CSF1R (UniProt P07333)
CSK = CSK (UniProt P41240)
CSNK1A1 = CSNK1A1 (UniProt P48729)
CSNK1D = CSNK1D (UniProt P48730)
DDR1 = DDR1 (UniProt Q08345)
DYRK1B = DYRK1B (UniProt Q9Y463)
DYRK2 = DYRK2 (UniProt Q92630)
EGFR = EGFR (UniProt P00533)
EGFR_G719S = EGFR_G719S (UniProt P00533)
EGFR_G719S_T790M = EGFR_G719S_T790M (UniProt P00533)
EGFR_L718V = EGFR_L718V (UniProt P00533)
EGFR_L858R = EGFR_L858R (UniProt P00533)
EGFR_L861Q = EGFR_L861Q (UniProt P00533)
EGFR_T790M = EGFR_T790M (UniProt P00533)
EPHA2 = EPHA2 (UniProt P29317)
ERBB3 = ERBB3 (UniProt P21860)
[1] = target: ERBB4_R711C (clone: ERBB4_mut) (UniProt Q15303)

| SMILES | kinase-Nluc reporter destabilization hit call (CDK7) | kinase-Nluc reporter destabilization hit call (CDK9) | kinase-Nluc reporter destabilization hit call (CHEK2) | kinase-Nluc reporter destabilization hit call (CSF1R) | kinase-Nluc reporter destabilization hit call (CSK) | kinase-Nluc reporter destabilization hit call (CSNK1A1) | kinase-Nluc reporter destabilization hit call (CSNK1D) | kinase-Nluc reporter destabilization hit call (DDR1) | kinase-Nluc reporter destabilization hit call (DYRK1B) | kinase-Nluc reporter destabilization hit call (DYRK2) | kinase-Nluc reporter destabilization hit call (EGFR) | kinase-Nluc reporter destabilization hit call (EGFR_G719S) | kinase-Nluc reporter destabilization hit call (EGFR_G719S_T790M) | kinase-Nluc reporter destabilization hit call (EGFR_L718V) | kinase-Nluc reporter destabilization hit call (EGFR_L858R) | kinase-Nluc reporter destabilization hit call (EGFR_L861Q) | kinase-Nluc reporter destabilization hit call (EGFR_T790M) | kinase-Nluc reporter destabilization hit call (EPHA2) | kinase-Nluc reporter destabilization hit call (ERBB3) | kinase-Nluc reporter destabilization hit call [1] |
| --- | --- | --- | --- | --- | --- | --- | --- | --- | --- | --- | --- | --- | --- | --- | --- | --- | --- | --- | --- | --- |
| CN(C)Cc1cccc(N=C(c2ccccc2)c2c(O)[nH]c3cc(C(=O)N(C)C)ccc23)c1 (10 µM) | inactive: 0 | inactive: 0 | inactive: 0 | inactive: 0 | inactive: 0 | inactive: 0 | inactive: 0 | inactive: 0 | inactive: 0 | inactive: 0 | inactive: 0 | inactive: 0 | inactive: 0 | inactive: 0 | inactive: 0 | inactive: 0 | inactive: 0 | inactive: 0 | inactive: 0 | inactive: 0 |
| N=C(N)NC(=N)NCCc1ccccc1 [Phenformin (hydrochloride)] (10 µM) | inactive: 0 | inactive: 0 | inactive: 0 | inactive: 0 | inactive: 0 | inactive: 0 | inactive: 0 | inactive: 0 | inactive: 0 | inactive: 0 | inactive: 0 | inactive: 0 | inactive: 0 | inactive: 0 | inactive: 0 | inactive: 0 | inactive: 0 | inactive: 0 | inactive: 0 | inactive: 0 |
| CN(C)C(=O)c1ccc(S(=O)(=O)c2ccc(NC(=O)[C@@](C)(O)C(F)(F)F)c(Cl)c2)cc1 (10 µM) | inactive: 0 | inactive: 0 | inactive: 0 | inactive: 0 | inactive: 0 | inactive: 0 | inactive: 0 | inactive: 0 | inactive: 0 | inactive: 0 | inactive: 0 | inactive: 0 | inactive: 0 | inactive: 0 | inactive: 0 | inactive: 0 | inactive: 0 | inactive: 0 | inactive: 0 | inactive: 0 |
| O=C(NOCCO)c1ccc2cncn2c1Nc1ccc(I)cc1F (10 µM) | inactive: 0 | inactive: 0 | inactive: 0 | inactive: 0 | inactive: 0 | inactive: 0 | inactive: 0 | inactive: 0 | inactive: 0 | inactive: 0 | inactive: 0 | inactive: 0 | inactive: 0 | inactive: 0 | inactive: 0 | inactive: 0 | inactive: 0 | inactive: 0 | inactive: 0 | inactive: 0 |
| CCC(C)(C)C(=O)N(O)Cc1ccccc1 (10 µM) | inactive: 0 | inactive: 0 | inactive: 0 | inactive: 0 | inactive: 0 | inactive: 0 | inactive: 0 | inactive: 0 | inactive: 0 | inactive: 0 | inactive: 0 | inactive: 0 | inactive: 0 | inactive: 0 | inactive: 0 | inactive: 0 | inactive: 0 | inactive: 0 | inactive: 0 | inactive: 0 |
| COc1cc2ncnc(Nc3ccc(NC(=O)c4ccccc4)cc3)c2cc1OC [Aurora kinase inhibitor-2] (2.5 µM) | inactive: 0 | inactive: 0 | inactive: 0 | inactive: 0 | inactive: 0 | inactive: 0 | inactive: 0 | inactive: 0 | inactive: 0 | inactive: 0 | inactive: 0 | inactive: 0 | inactive: 0 | inactive: 0 | inactive: 0 | inactive: 0 | inactive: 0 | inactive: 0 | inactive: 0 | inactive: 0 |
| CC[C@H](Nc1ncnc2[nH]cnc12)c1oc2ccccc2c(=O)c1-c1cccc(F)c1 [Tenalisib] (10 µM) | inactive: 0 | inactive: 0 | inactive: 0 | inactive: 0 | inactive: 0 | inactive: 0 | inactive: 0 | inactive: 0 | inactive: 0 | inactive: 0 | inactive: 0 | inactive: 0 | inactive: 0 | inactive: 0 | inactive: 0 | inactive: 0 | inactive: 0 | inactive: 0 | inactive: 0 | inactive: 0 |
| CCn1nc(C2CCN(C(=O)CCO)CC2)nc1-c1cnc(N)c(-c2nnc(C(C)(C)C)o2)n1 (10 µM) | inactive: 0 | inactive: 0 | inactive: 0 | inactive: 0 | inactive: 0 | inactive: 0 | inactive: 0 | inactive: 0 | inactive: 0 | inactive: 0 | inactive: 0 | inactive: 0 | inactive: 0 | inactive: 0 | inactive: 0 | inactive: 0 | inactive: 0 | inactive: 0 | inactive: 0 | inactive: 0 |
| CC(C)n1cnc2c(Nc3cccc(Cl)c3)nc(NCCO)nc21 (10 µM) | inactive: 0 | inactive: 0 | inactive: 0 | inactive: 0 | inactive: 0 | inactive: 0 | inactive: 0 | inactive: 0 | inactive: 0 | inactive: 0 | inactive: 0 | inactive: 0 | inactive: 0 | inactive: 0 | inactive: 0 | inactive: 0 | inactive: 0 | inactive: 0 | inactive: 0 | inactive: 0 |
| CC(C)c1cnn2c(NCc3ccccc3-n3cccn3)nc(OC3CCCNC3)nc12 (stereo not given) (2.5 µM) | inactive: 0 | inactive: 0 | inactive: 0 | inactive: 0 | inactive: 0 | inactive: 0 | inactive: 0 | inactive: 0 | inactive: 0 | inactive: 0 | inactive: 0 | inactive: 0 | inactive: 0 | inactive: 0 | inactive: 0 | inactive: 0 | inactive: 0 | inactive: 0 | inactive: 0 | inactive: 0 |
| CC(=O)NCCc1c[nH]c2ccc(O)cc12 [N-Acetyl-5-hydroxytryptamine] (10 µM) | inactive: 0 | inactive: 0 | inactive: 0 | inactive: 0 | inactive: 0 | inactive: 0 | inactive: 0 | inactive: 0 | inactive: 0 | inactive: 0 | inactive: 0 | inactive: 0 | inactive: 0 | inactive: 0 | inactive: 0 | inactive: 0 | inactive: 0 | inactive: 0 | inactive: 0 | inactive: 0 |
| CC1(COc2ccc3c(c2)ncn3-c2ccc3cccc(N4CCC(N)CC4)c3n2)COC1 [Crenolanib] (2.5 µM) | inactive: 0 | inactive: 0 | inactive: 0 | inactive: 0 | inactive: 0 | inactive: 0 | inactive: 0 | inactive: 0 | inactive: 0 | inactive: 0 | inactive: 0 | inactive: 0 | inactive: 0 | inactive: 0 | inactive: 0 | inactive: 0 | inactive: 0 | inactive: 0 | inactive: 0 | inactive: 0 |
| CCOc1ccccc1C=C1C(=O)Nc2ccccc21 (10 µM) | inactive: 0 | inactive: 0 | inactive: 0 | inactive: 0 | inactive: 0 | inactive: 0 | inactive: 0 | inactive: 0 | inactive: 0 | inactive: 0 | inactive: 0 | inactive: 0 | inactive: 0 | inactive: 0 | inactive: 0 | inactive: 0 | inactive: 0 | inactive: 0 | inactive: 0 | inactive: 0 |
| O=S(=O)(c1cccc2cnccc12)N1CCNCC1 (10 µM) | inactive: 0 | inactive: 0 | inactive: 0 | inactive: 0 | inactive: 0 | inactive: 0 | inactive: 0 | inactive: 0 | inactive: 0 | inactive: 0 | inactive: 0 | inactive: 0 | inactive: 0 | inactive: 0 | inactive: 0 | inactive: 0 | inactive: 0 | inactive: 0 | inactive: 0 | inactive: 0 |
| COc1ccc2c(c1)c(C1=C(c3c[nH]c4ccccc34)C(=O)NC1=O)cn2CCCN(C)C (10 µM) | inactive: 0 | active: 1 | inactive: 0 | inactive: 0 | inactive: 0 | inactive: 0 | inactive: 0 | inactive: 0 | inactive: 0 | inactive: 0 | inactive: 0 | inactive: 0 | inactive: 0 | inactive: 0 | inactive: 0 | inactive: 0 | inactive: 0 | inactive: 0 | inactive: 0 | inactive: 0 |
| COc1cc(C(C)=O)cc(OC)c1O [Acetosyringone] (10 µM) | inactive: 0 | inactive: 0 | inactive: 0 | inactive: 0 | inactive: 0 | inactive: 0 | inactive: 0 | inactive: 0 | inactive: 0 | inactive: 0 | inactive: 0 | inactive: 0 | inactive: 0 | inactive: 0 | inactive: 0 | inactive: 0 | inactive: 0 | inactive: 0 | inactive: 0 | inactive: 0 |
| C[C@H]1[C@H](OC(=O)CCC(=O)O)O[C@@H]2O[C@@]3(C)CC[C@H]4[C@H](C)CC[C@@H]1[C@@]24OO3 [Artesunate] (2.5 µM) | inactive: 0 | inactive: 0 | inactive: 0 | inactive: 0 | inactive: 0 | inactive: 0 | inactive: 0 | inactive: 0 | inactive: 0 | inactive: 0 | inactive: 0 | inactive: 0 | inactive: 0 | inactive: 0 | inactive: 0 | inactive: 0 | inactive: 0 | inactive: 0 | inactive: 0 | inactive: 0 |

Looked up above:
Entry of CCC(C)(C)C(=O)N(O)Cc1ccccc1 (10 µM) under kinase-Nluc reporter destabilization hit call (EGFR_G719S): inactive: 0
Entry of C[C@H]1[C@H](OC(=O)CCC(=O)O)O[C@@H]2O[C@@]3(C)CC[C@H]4[C@H](C)CC[C@@H]1[C@@]24OO3 [Artesunate] (2.5 µM) under kinase-Nluc reporter destabilization hit call (EGFR): inactive: 0
